Measurements as given in patent US5677419A (Hoffmann-La Roche Inc., priority 1994, dated 1997).

What was measured:
[1] = general procedure: Boc solid-phase peptide synthesis; benzhydrylamine resin; DCC symmetrical anhydrides or DIC; HOBT active esters for Asn, Gln, His; BOP or; details: whole synthesis, scale 0.1 mmol
[2] = general procedure: Boc solid-phase peptide synthesis; benzhydrylamine (BHA) resin, 100-200 ASTM mesh, Bachem; DCC symmetrical anhydrides or DIC; HOBT active esters for Asn, Gln, His; BOP or; details: whole synthesis

Substance	crude mass [1] [mg]	crude mass ([2]; scale 0.1 mmol) [mg]	further results
Ac-[Ala^2,Glu^8,Lys^12,Nle^17,Asp^25,Leu^26,Lys^27,28,Gly^29,30,Thr^31 ]-VIP cyclo (Lys^21 →Asp^25)	370		
Ac-[Ala^2,Lys^12,Nle^17,Ala^19,Asp^25,Val^26,Thr^28 ]-VIP cyclo (Lys^21 →Asp^25)		172	
Ac-[Ala^8,Lys^12,Ala^16,17,19,Ala^24,Asp^25,Leu^26,Lys^27,28 ]-VIP cyclo (Lys^21 →Asp^25)	240		
Ac-[Asn^8,Asp^9,Lys^12,Nle^17,Val^26,Thr^28 ]-VIP cyclo (Asp^9 →Lys^12)			crude mass ([2]; scale 0.122 mmol): 485 mg
Ac-[Glu^8,Lys^12,Ala^16,17,19,Ala^24,Asp^25,Leu^26,Lys^27,28 ]-VIP cyclo (Lys^21 →Asp^25)	178		
Ac-[Glu^8,Lys^12,Nle^17,Ala^19,Asp^25,Val^26,Thr^28,Gly^29,30,Thr^31 ]-VIP cyclo (Lys^21 →Asp^25)	440		
Ac-[Glu^8,Lys^12,Nle^17,Asp^25,Leu^26,Lys^27,28,Gly^29,30,Thr^31 ]-VIP cyclo (Lys^21 →Asp^25)	378		
Ac-[Glu^8,Orn^12,Nle^17,Asp^25,Val^26,Thr^28 ]-VIP cyclo (Lys^21 →Asp^25)		255	
Ac-[Lys^12,Nle^17,Ala^19,Asp^25,Leu^26,Lys^27,28,Ala^29-31 ]-VIP cyclo (Lys^21 →Asp^25)	360		
Ac-[Lys^12,Nle^17,Ala^19,Asp^25,Val^26,Thr^28 ]-VIP cyclo (Lys^21 →Asp^25)		304	
Ac-[Lys^12,Nle^17,Asp^24,Val^26,Thr^28 ]-VIP cyclo (Lys^20 →Asp^24)		265	
Ac-[p-F-Phe^6,2-Nal^10,Lys^12,Nle^17,Asp^25,Val^26,Thr^28,Gly^29,30,Met^31 ]-VIP (1-31)-NH2 cyclo (Lys^21 →Asp^25)		345	
Ac-[p-F-Phe^6,Glu^8,Lys^12,Nle^17,Asp^25,Val^26,Thr^28,Gly^29,30,Thr^31 ]-VIP cyclo (Lys^21 →Asp^25)	280		
Ac-[p-F-Phe^6,Lys^12,Nle^17,Ala^19,Asp^25,Val^26,Thr^28,Gly^29,30,Cys(Acm)^31 ]-VIP (1-31)-NH2 cyclo (Lys^21 →Asp^25)		268	
